From PubChem BioAssay AID1487 (National Center for Advancing Translational Sciences (NCATS), 2009)
Out of some 200,000 compounds screened, about 25 (0.01%) were called active. The shares of active, inactive and inconclusive entries below differ from those in the screen. The call rests on the fitted dose curve; in most records, active means well fitted inhibition curve with a large enough effect in the signal ratio, with a control signal flat (not every such curve was filed as active); inconclusive means small, poorly fitted or top-dose-only effect, or effect the other way, or a change in a side signal; inactive means flat fitted curve, though single readings scatter; the % refers to the signal ratio. Potencies of inconclusive entries are doubtful fits and often do not repeat.

Assay: qHTS Assay for Modulators of Lamin A Splicing
Conditions: HeLa LMNA splicing GFP/RFP minigene ratio, 48 h; ratio change, negative = inhibition: at 46.1 µM (top of the series) unless noted
Method in brief: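 S3 HeLa cells stably expressing lamin A-EGFP splicing minigene plus DsRed2, 600 cells/well, 48 h compound exposure at 37C. Laser-scanning cytometry; analysed as GFP (500-530 nm)/RFP (575-640 nm) total intensity ratio; 0.5% DMSO vehicle.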
On the % scale 0 is the no-effect control and ±100 the full control effect; potency means the concentration at half of the fitted maximal effect.

SMILES | ratio change, negative = inhibition | Potency
COc1ccc(N(C)S(=O)(=O)c2cccc(C(=O)NCC3CCCO3)c2)cc1 (stereo not given) | inactive | –
CC(C)CN1CCN(Cc2ccc(C#CC(C)(C)O)cc2)CC1CCO (stereo not given) | inconclusive: 5.67% [at 46 µM] | –
Cc1ccc(C(=O)OCn2nnc3ccccc3c2=O)cc1[N+](=O)[O-] | inactive: 23.4% [at 9.22 µM] | –
c1csc(CNc2ccnc(-c3ccc4c(c3)OCO4)n2)c1 | inconclusive: 8.19% | –
COc1ccc2c(c1)c(CC(=O)O)c(C)n2C(=O)c1ccc(Cl)cc1 | inconclusive: -11.2% | –
COc1ccc(C)cc1N(C(=O)c1ccccc1F)c1nc2ccccc2s1 | inconclusive: 8.2% | –
C=CCCC(=O)Nc1nc(C)c(-c2csc(Nc3ccccc3OC)n2)s1 | inconclusive: -16.1% | –
O=C(O)c1ccc(NC(=O)c2cn(-c3ccccc3)nc2-c2ccc(Cl)cc2)cc1 | inconclusive: -26.3% [at 46 µM] | –
Fc1ccccc1N=C1NN=C(c2ccccc2)CS1 | inconclusive: -40.5% [at 46 µM] | –
Cc1ccccc1N(CC(=O)NC1CCCC1)C(=O)C1(C)CC(=O)N=C2C=CC=CN21 (stereo not given) | inactive | –
CC(=O)N1N=C(c2ccc(C)cc2)OC1c1cccnc1 (stereo not given) | inconclusive: 11% [at 46 µM] | –
Cc1noc(C)c1-c1nc(N2CCN(C)CC2)c2ccccc2n1 | – | inconclusive: 20 µM [inhibitor, single point]
S=c1[nH]nc(C2CCCCC2)n1/N=C/C(Cl)=C\c1ccccc1 | – | inconclusive: 35.5 µM [cytotoxic, single point]
CCOC(=O)C1CCN(C(=O)CCS(=O)(=O)c2cc3c(cc2Cl)NC(=O)CO3)CC1 | inconclusive: -10.8% [at 46 µM] | –
O=C1c2ccccc2C(=O)N1OCc1ccc(Cl)cc1 | inactive | –
Cc1ccc(S(=O)(=O)N2CCN(C(=O)N3CCOCC3)C2C(C)C)cc1 (stereo not given) | inactive | –
CCC(=O)c1ccccc1OCCSc1nc(C)cc(=O)[nH]1 | inconclusive: -6.89% | –
Cc1ccc(Cl)cc1NC(=O)C1CCCCC1C(=O)O (stereo not given) | inconclusive: 1.61% [at 46 µM] | –
CCc1cccc2c1NC1(CCCC1)CC2C (stereo not given) | inconclusive: -34.8% [at 46 µM] | –
NC(=S)N=Nc1c(O)n(CCCl)c2ccccc12 | – | inconclusive: 35.5 µM [activator, single point]
Fc1cccc(Cl)c1-c1nnc2ccc3ccccc3n12 | – | inconclusive: 14.1 µM [inhibitor, partial curve, poor fit]
COc1cc(O)sc1C=Nc1ccc(Cl)cc1Cl | inconclusive: 13.1% [at 9.22 µM] | –
COc1cc2c(cc1NC(=O)CSc1nnc(Cc3cccs3)n1Cc1ccco1)oc1ccccc12 | inactive | –
CCc1cc2c(=O)n(Cc3ccco3)c(SCc3c(C)noc3C)nc2s1 | – | inconclusive: 7.94 µM [falling, partial curve]
O=C(CSc1nccn1-c1ccc(F)cc1)Nc1ccc(OC(F)(F)F)cc1 | inactive | –

Another view of four compounds above.
Cc1ccc(Cl)cc1NC(=O)C1CCCCC1C(=O)O (stereo not given)
  ratio change, negative = inhibition: inconclusive: 1.61% [at 46 µM]
CCc1cccc2c1NC1(CCCC1)CC2C (stereo not given)
  ratio change, negative = inhibition: inconclusive: -34.8% [at 46 µM]
NC(=S)N=Nc1c(O)n(CCCl)c2ccccc12
  Potency: inconclusive: 35.5 µM [activator, single point]
Fc1cccc(Cl)c1-c1nnc2ccc3ccccc3n12
  Potency: inconclusive: 14.1 µM [inhibitor, partial curve, poor fit]

Additional records.

SMILES | ratio change, negative = inhibition | Potency
CCOC(=O)c1c(C)oc2ccc(NS(=O)(=O)c3ccc4c5c(cccc35)C(=O)N4)cc12 | – | inconclusive: 35.5 µM [fluorescent, single point]
CCN1CCC[C@@H](OC(=O)C(c2ccccc2)c2ccccc2)C1 | inconclusive: -2.36% | –
O=C(O)c1cc(-c2ccc(/C=N/Nc3ccc(Cl)cc3)o2)ccc1Cl | inactive | –
CCOC(=O)N1CCN(C(=O)CSCC(=O)Nc2nc(-c3ccc(-c4ccccc4)cc3)cs2)CC1 | inconclusive: -14.3% | –
CC#CCN1c2ccccc2[C@]23C[C@@H](C(=O)OC)N(S(=O)(=O)c4ccc(OC)cc4)C2=NC(C(=O)OC)=C(C(=O)OC)[C@H]13 | inconclusive: -5.49% [at 9.22 µM] | –
COc1cc(Cl)c(C)cc1NC(=O)c1sc2nc3n(c(=O)c2c1C)CCCCC3 | inactive | –
Cc1cc(-c2n[nH]c(=S)n2/N=C/c2sccc2C)n[nH]1 | inactive | –
CCOC(=O)c1c(NC(=O)CCC(=O)N2CCOCC2)sc2c1CC(C)(C)OC2 | inactive | –
CC(=O)c1c(C)oc2c(Cl)cc(NS(=O)(=O)c3ccc(Cl)cc3)cc12 | inconclusive: 39.3% [at 46 µM] | –
COc1ccc(NC(=O)CCC(=O)c2cccs2)cc1S(=O)(=O)Nc1ccccc1Cl | inconclusive: -41% | –
CCn1cc(S(=O)(=O)c2cc(C)cc(C)c2)c(=O)c2cc(F)c(N3CCCC3)cc21 | inconclusive: -5.69% [at 46 µM] | –
O=C(NCCc1ccc2c(c1)OCCO2)c1ccccc1F | – | inconclusive: 14.1 µM [fluorescent, single point]
CN(C1CCCCC1)S(=O)(=O)Cc1ccccc1 | inactive | –
CN(C)c1ccc(C(CNC(=O)c2ccc(C(C)(C)C)cc2)N2CCOCC2)cc1 (stereo not given) | inconclusive: -38.3% [at 46 µM] | –
O=C(Cc1ccc(Cl)c(Cl)c1)Nc1ccc(SC(F)F)cc1 | – | inconclusive: 35.5 µM [falling, single point]
Cc1ccc(C2=N/C(=C\N3CCCCC3)C(=O)O2)cc1 | inactive | –
Cc1ccc(OC(=O)c2cc(=O)c3ccccc3o2)cc1 | inconclusive: -9.67% | –
Cc1ccc(C)n1-c1sc2c(c1C#N)CCC(C)C2 (stereo not given) | inconclusive: 37.2% | –
CCCCNC(=O)Cn1cnc2sc(C)c(S(=O)(=O)N3CCN(c4ncccn4)CC3)c2c1=O | inactive | –
Fc1ccc(C(Nc2ccccn2)c2c[nH]c3ccccc23)cc1 (stereo not given) | – | inconclusive: 35.5 µM [inhibitor, single point]
COC(=O)c1c(-c2ccc(Cl)cc2)noc1N1CCN(c2ccc(C)cc2C)CC1 | – | inconclusive: 6.31 µM [inhibitor, partial curve, poor fit]
CCOC(=O)Cc1ccc(NC(=O)N2CCOc3ccc(C)cc32)cc1 | inactive | –
COc1cc(NS(=O)(=O)c2ccc(NC(=S)NC(=O)C3CCCC3)cc2)nc(OC)n1 | inactive | –
COC(=O)C1=C(O)/C(=C\c2ccc(CNS(=O)(=O)c3ccccc3)o2)N=C1C | inconclusive: -16.4% | –
O=C(Nc1ccccc1)c1nnsc1S(=O)(=O)c1ccc(Cl)cc1 | inconclusive: 11.9% | –
